{"source": "PubChem BioAssay AID504774 | Drosophila RNAi Screening Center – 2011", "aim": "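Knock-downs that shift viability of MMS-exposed cells relative to untreated ones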 (primary screen)", "cell system": "Drosophila Kc167 cells", "knock-down reagent": "long dsRNA against Drosophila genes, about 0.25 µg dsRNA per well", "time to read-out": "about 6 days: 3 days knock-down, then 3 days with or without MMS", "treatment": "methyl methanesulphonate 0.004% (w/v) for 3 days after knock-down", "detection": "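ATP-dependent luminescence as a measure of live cells in MMS-exposed wells, quantile normalised within each plate, with replicate values also given as a mean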", "scale": "mean viability with MMS: higher = more surviving cells after MMS", "note": "The deposit covers about 23,000 reagents; this is an unselected part of those with a known target gene and a result. 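Values are quantile-normalised luminescence on an arbitrary scale; higher means more cells surviving MMS.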 A plus sign joins genes that one reagent is predicted to hit. Further read-outs or replicates are left out here."}
{"gene": "CG12279", "amplicon": "DRSC14495", "mean viability with MMS": 3.41e6}
{"gene": "CG9897 + asRNA:CR42742", "amplicon": "DRSC04595", "mean viability with MMS": 3.47e6}
{"gene": "CG1523", "amplicon": "DRSC15033", "mean viability with MMS": 3.54e6}
{"gene": "CG31265", "amplicon": "DRSC15745", "mean viability with MMS": 3.58e6}
{"gene": "CG3198", "amplicon": "DRSC18292", "mean viability with MMS": 3.46e6}
{"gene": "Cals", "amplicon": "DRSC17196", "mean viability with MMS": 3.70e6}
{"gene": "Cals", "amplicon": "DRSC21661", "mean viability with MMS": 3.55e6}
{"gene": "TTLL12", "amplicon": "DRSC06555", "mean viability with MMS": 3.65e6}
{"gene": "CG32086", "amplicon": "DRSC10586", "mean viability with MMS": 3.53e6}
{"gene": "CG8475", "amplicon": "DRSC03091", "mean viability with MMS": 3.60e6}
{"gene": "CG34008", "amplicon": "DRSC13428", "mean viability with MMS": 3.57e6}
{"gene": "Art4", "amplicon": "DRSC15779", "mean viability with MMS": 3.41e6}
{"gene": "CCT8", "amplicon": "DRSC07130", "mean viability with MMS": 3.22e6}
{"gene": "CG33263", "amplicon": "DRSC10108", "mean viability with MMS": 3.49e6}
{"gene": "cv-d", "amplicon": "DRSC16522", "mean viability with MMS": 3.47e6}
{"gene": "cv-d", "amplicon": "DRSC16524", "mean viability with MMS": 3.42e6}
{"gene": "cv-d", "amplicon": "DRSC16526", "mean viability with MMS": 3.72e6}
{"gene": "CG6688", "amplicon": "DRSC16094", "mean viability with MMS": 3.72e6}
{"gene": "Col4a1", "amplicon": "DRSC03291", "mean viability with MMS": 3.69e6}
{"gene": "TwdlE", "amplicon": "DRSC02392", "mean viability with MMS": 3.64e6}
{"gene": "Tcs3", "amplicon": "DRSC10461", "mean viability with MMS": 3.58e6}
{"gene": "Noc2", "amplicon": "DRSC03165", "mean viability with MMS": 3.34e6}
{"gene": "Chd64", "amplicon": "DRSC08649", "mean viability with MMS": 3.56e6}
{"gene": "IntS9", "amplicon": "DRSC10493", "mean viability with MMS": 3.43e6}
{"gene": "Cyp9f2", "amplicon": "DRSC16635", "mean viability with MMS": 3.71e6}
{"gene": "CG34386", "amplicon": "DRSC06467", "mean viability with MMS": 2.85e6}
{"gene": "CG34386", "amplicon": "DRSC06468", "mean viability with MMS": 3.62e6}
{"gene": "CG34386", "amplicon": "DRSC23234", "mean viability with MMS": 3.57e6}
{"gene": "Pex19", "amplicon": "DRSC02839", "mean viability with MMS": 3.54e6}
{"gene": "CG30395", "amplicon": "DRSC03896", "mean viability with MMS": 3.60e6}
{"gene": "cmb", "amplicon": "DRSC09790", "mean viability with MMS": 3.62e6}
{"gene": "CG8195", "amplicon": "DRSC07103", "mean viability with MMS": 3.74e6}
{"gene": "CG14717", "amplicon": "DRSC14940", "mean viability with MMS": 3.60e6}
{"gene": "CG32576 + UQCR-14", "amplicon": "DRSC19870", "mean viability with MMS": 3.33e6}
{"gene": "CG32246", "amplicon": "DRSC08115", "mean viability with MMS": 3.27e6}
